Some results were stated once for a whole list of compounds, not compound by compound.
Tests used:
Botrytis cinerea = test: Microtiter test, activity against the grey mold Botrytis cinerea; type: cell-based; conditions: 125 ppm active compound; Botrytis cinerea spore suspension, MTP measured at 405 nm 9 days after inoculation; control = 100%
Septoria tritici = test: Microtiter test, activity against leaf blotch on wheat caused by Septoria tritici; type: cell-based; conditions: 125 ppm active compound; Septoria tritici spore suspension, MTP measured at 405 nm 9 days after inoculation; control = 100%

## COc1cc(CNS(=O)(=O)CCOc2ccc(Cl)cc2)ccn1 [Example 15, 2-(4-chloro-phenoxy)-ethanesulfonic acid (2-methoxy-pyridin-4-ylmethyl)-amide]
Botrytis cinerea
  relative growth of the pathogen: at most 20%
Septoria tritici
  relative growth of the pathogen: at most 15%

From patent US20110065578A1, “Substituted Pyridin-4-ylmethyl Sulfonamides” (BASF SE, priority 2008, published 2011)
